Assay results: US6911474B2, “Methods, compounds, and compositions for reducing body fat and modulating fatty acid metabolism” (The Regents of the University of California, priority 2001, dated 2005)

Test: Plasma hormone levels by radioimmunoassay (HPA axis)
Assay type: in vivo, rat
Conditions: 20 mg per kg, i.p., 60 min after injection
Protocol: Blood chemistry. Plasma β-hydroxybutyrate and glycerol were measured using commercial kits (Sigrna, St. Louis, Mo.). Plasma prolactin, corticosterone and luteinizing hormone were quantified by radioimmunoassay (Navarro et al., Neuroreport, 8:491-496 (1997)).

SMILES: CCCCCCCC/C=C\CCCCCCCC(=O)NCCO [OEA, Oleoylethanolamide]
- plasma corticosterone (B): 280 ± 61 ng per ml
- plasma luteinizing hormone (LH): 6.2 ± 1.5 ng per ml
- plasma prolactin (PRL): 8.2 ± 3.2 ng per ml
